Values from PubChem BioAssay AID1159578 (Peter MacCallum Cancer Centre, 2015)
This is an unselected part of about 18,000 reagents. Over the whole deposit, about 1,030 (5.7%) were called active. 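Inactive calls also include pools with fewer than 3300 nuclei, whose migration was not assessed.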 The raw values are shown without normalisation. Unmarked entries are inactive. Further read-outs or replicates are left out here.

Purpose: 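siRNA pools altering how lymphatic endothelial cells close a scratch wound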 (primary screen)
System: human lymphatic endothelial cells
Reagent: siRNA pool against human genes, 40 nM
Timing: 48 h after transfection
Read-out: 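Cells stained with dye and imaged after a scratch; covered wound area and nuclei counted, duplicates averaged, migration set against mock wells and turned into a robust z-score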
Direction: migration robust z-score: higher = faster migration into the scratch; nuclei per well: higher = more cells in the well
Hit rule: 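Migration changed when robust z exceeds 2 or falls below -2 and mean nuclei number is at least 3300; otherwise not called changed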
Meaning of the calls: active = migration changed; inactive = no migration change, or too few cells

{"gene symbol": "KLK12 (GeneID 43849)", "migration robust z-score": 0.16, "nuclei per well, duplicate mean": 5153}
{"gene symbol": "IGF2 (GeneID 3481)", "migration robust z-score": 0.34, "nuclei per well, duplicate mean": 3134}
{"gene symbol": "APOO (GeneID 79135)", "migration robust z-score": 0.75, "nuclei per well, duplicate mean": 4197}
{"gene symbol": "RHOJ (GeneID 57381)", "migration robust z-score": 0.62, "nuclei per well, duplicate mean": 4476}
{"gene symbol": "PER1 (GeneID 5187)", "migration robust z-score": "2.21 (active)", "nuclei per well, duplicate mean": 6091}

As entered above.
Under “migration robust z-score”, RHOJ (GeneID 57381) is entered as 0.62
Entry for IGF2 (GeneID 3481) under “nuclei per well, duplicate mean”: 3134

Next reagents follow:
{"gene symbol": "HAS1 (GeneID 3036)", "migration robust z-score": -1.3, "nuclei per well, duplicate mean": 4772}
{"gene symbol": "RACGAP1 (GeneID 29127)", "migration robust z-score": 1.18, "nuclei per well, duplicate mean": 4774}
{"gene symbol": "TMSB4XP8 (GeneID 7117)", "migration robust z-score": 0.38, "nuclei per well, duplicate mean": 5758}
{"gene symbol": "LIPM (GeneID 340654)", "migration robust z-score": 0.57, "nuclei per well, duplicate mean": 6114}
{"gene symbol": "ADRA2B (GeneID 151)", "migration robust z-score": 0.8, "nuclei per well, duplicate mean": 5936}
{"gene symbol": "ZNF570 (GeneID 148268)", "migration robust z-score": -1.12, "nuclei per well, duplicate mean": 5878}
{"gene symbol": "NEUROD2 (GeneID 4761)", "migration robust z-score": 0.36, "nuclei per well, duplicate mean": 6325}
{"gene symbol": "ESR1 (GeneID 2099)", "migration robust z-score": 0.13, "nuclei per well, duplicate mean": 5970}
{"gene symbol": "SPART (GeneID 23111)", "migration robust z-score": 1.42, "nuclei per well, duplicate mean": 5832}
